Consider one sequence from article PMC5996148.

Some of the results follow.

Assay in all cases: protein microarray (ProtoArray v5.0), streptavidin-Alexa Fluor 647
Holding throughout (conditions): 3'-biotin; 20 mM Tris (pH 7.5), 5 mM MgCl2, 100 mM KCl, 0.1% Tween-20, A/T-rich and random oligonucleotide blockers; temperature not stated; high values mean tight binding

Assay [1] relates to Phospholysine phosphohistidine inorganic pyrophosphate phosphatase (human).
For assay [2], the system named is Pleckstrin homology domain-containing family J member 1 (human).
The test system of assay [3] is Podoplanin (human).
Assay [4] has as its system Polyamine-modulated factor 1 (human).
Assay [5] deals with Potassium voltage-gated channel subfamily E member 2 (human).
In assay [6] the test system is Pre-mRNA-splicing factor ISY1 homolog (human).
The subject of assay [7] is Prenylated Rab acceptor protein 1 (human).
Assay [8] concerns Probable ATP-dependent RNA helicase DDX6 (human).
Assay [9] concerns Probable ergosterol biosynthetic protein 28 (human).
For assay [10], the system named is Proteasome subunit beta type-2 (human).

With “GGGGACAGGGGTATGGGGAGGGG [G4-3 biotinylated (CtG)]”, the binding signal in assay [1] was -0.317 z-score; in [2] it was -0.351 z-score; in assay [3], -0.332 z-score; in [4], -0.335 z-score; in assay [5] it was -0.29 z-score; in assay [6], -0.343 z-score. The binding signal in assay [7] is -0.326 z-score; in [8] it was 7.51 z-score; in assay [9], -0.328 z-score; in [10], -0.333 z-score.
